PubChem BioAssay AID1508597 – Cure First | 2020
Shown is a random part of the about 2,100 reagents, in one setting of the screen. 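Calls flag viability under 80% in either arm, not effects specific to rucaparib; the reference for percent is not stated.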 The record does not give: the 100% reference.

- Purpose: 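Survival screen with siRNA in ovarian cancer cells derived from patients, with or without rucaparib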 (primary screen)
- System: human ovarian carcinoma lines grown from tumours: OCI-P5x (papillary serous) and OCI-C5x (clear cell)
- Reagent: siRNA pool against human genes, 1.25 pmol siRNA per well
- Timing: 72 h or 96 h, depending on the cell culture
- Conditions: rucaparib 20 µM (about IC30) or vehicle, present until read-out
- Rucaparib or vehicle: Vehicle
- Cell line: OCI-P5x (serous)
- Read-out: 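ATP luminescence measured at 72 or 96 h according to the culture, then normalised and expressed as percent viability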
- Direction: viability, normalised: higher = more viable cells remaining
- Rule for the call: 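Active when normalised viability falls below 80 percent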
- Meaning of the calls: active = viability under 80%; inactive = viability 80% or more

For DNMT3L, technical replicate 1 the deposit lists viability, normalised (%) = 57.8; active.
DNMT3L, technical replicate 2 scored viability, normalised (%) = 61.2; active.
With DNMT3L, technical replicate 3, the values are viability, normalised (%) = 70.2; active.
RFK, technical replicate 1 showed viability, normalised (%) = 78.9; active.
With RFK, technical replicate 2, the entry reads viability, normalised (%) = 69.7; active.
With RFK, technical replicate 3, the entry reads viability, normalised (%) = 52; active.

2 of these entries, set out differently.
target gene,technical replicate,"viability, normalised (%)",activity call
RFK,2,69.7,active
RFK,3,52,active

Next records follow:
With SMARCA2, technical replicate 1 the deposit lists viability, normalised (%) = 51.6; active.
SMARCA2, technical replicate 2 scored viability, normalised (%) = 53.3; active.
With SMARCA2, technical replicate 3 the deposit lists viability, normalised (%) = 60.8; active.
OGG1, technical replicate 1 scored viability, normalised (%) = 92; inactive.
OGG1, technical replicate 2 showed viability, normalised (%) = 89.1; inactive.
OGG1, technical replicate 3 scored viability, normalised (%) = 87.4; inactive.
